Among the data in publication doi:10.1101/2022.10.06.511240 (bioRxiv, 2022) are binding values, retold here.

Experiment [1] deals with T1, CPK6 bait of the DUAL membrane split-ubiquitin system (Arabidopsis thaliana) (UniProt Q38872).
T1 sequence: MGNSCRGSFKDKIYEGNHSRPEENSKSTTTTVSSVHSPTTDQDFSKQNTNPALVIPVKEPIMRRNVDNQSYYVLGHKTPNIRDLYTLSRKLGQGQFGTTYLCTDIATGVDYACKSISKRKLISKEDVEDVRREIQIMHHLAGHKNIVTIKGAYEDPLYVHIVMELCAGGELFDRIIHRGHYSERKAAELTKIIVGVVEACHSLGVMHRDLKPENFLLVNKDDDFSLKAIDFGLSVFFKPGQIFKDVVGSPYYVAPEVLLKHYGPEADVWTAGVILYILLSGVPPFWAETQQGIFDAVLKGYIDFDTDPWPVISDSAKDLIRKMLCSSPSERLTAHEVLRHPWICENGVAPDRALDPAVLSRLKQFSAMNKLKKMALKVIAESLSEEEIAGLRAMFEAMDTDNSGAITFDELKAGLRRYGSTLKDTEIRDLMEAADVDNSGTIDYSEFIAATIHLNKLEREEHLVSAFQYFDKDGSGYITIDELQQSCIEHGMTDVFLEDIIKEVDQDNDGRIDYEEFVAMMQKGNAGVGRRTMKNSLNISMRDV
The experiment in a line: two-hybrid.

Experiment [2] deals with T2, cYFP-CPK6 (Arabidopsis thaliana) (UniProt Q38872).
T2 sequence: T1 sequence
The experiment in a line: split reporter.

For the next experiment, the target named is T3, CPK26 (UniProt Q9SZM3).
T3 sequence: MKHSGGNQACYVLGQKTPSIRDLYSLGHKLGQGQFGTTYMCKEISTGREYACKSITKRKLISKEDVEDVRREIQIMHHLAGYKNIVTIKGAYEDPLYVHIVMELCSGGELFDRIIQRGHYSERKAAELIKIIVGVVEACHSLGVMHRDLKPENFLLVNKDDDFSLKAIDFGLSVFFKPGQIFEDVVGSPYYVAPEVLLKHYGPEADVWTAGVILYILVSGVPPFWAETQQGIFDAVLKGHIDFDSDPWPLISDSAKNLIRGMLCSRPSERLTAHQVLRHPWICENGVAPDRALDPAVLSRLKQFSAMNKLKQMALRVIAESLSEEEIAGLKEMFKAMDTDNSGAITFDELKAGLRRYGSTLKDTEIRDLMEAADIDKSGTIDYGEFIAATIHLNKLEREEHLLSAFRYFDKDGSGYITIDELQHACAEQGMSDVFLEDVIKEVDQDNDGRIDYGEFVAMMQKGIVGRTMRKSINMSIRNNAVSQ
Briefly: two-hybrid.

The next experiment has as its target T4, CPK5 (UniProt Q38871).
T4 sequence: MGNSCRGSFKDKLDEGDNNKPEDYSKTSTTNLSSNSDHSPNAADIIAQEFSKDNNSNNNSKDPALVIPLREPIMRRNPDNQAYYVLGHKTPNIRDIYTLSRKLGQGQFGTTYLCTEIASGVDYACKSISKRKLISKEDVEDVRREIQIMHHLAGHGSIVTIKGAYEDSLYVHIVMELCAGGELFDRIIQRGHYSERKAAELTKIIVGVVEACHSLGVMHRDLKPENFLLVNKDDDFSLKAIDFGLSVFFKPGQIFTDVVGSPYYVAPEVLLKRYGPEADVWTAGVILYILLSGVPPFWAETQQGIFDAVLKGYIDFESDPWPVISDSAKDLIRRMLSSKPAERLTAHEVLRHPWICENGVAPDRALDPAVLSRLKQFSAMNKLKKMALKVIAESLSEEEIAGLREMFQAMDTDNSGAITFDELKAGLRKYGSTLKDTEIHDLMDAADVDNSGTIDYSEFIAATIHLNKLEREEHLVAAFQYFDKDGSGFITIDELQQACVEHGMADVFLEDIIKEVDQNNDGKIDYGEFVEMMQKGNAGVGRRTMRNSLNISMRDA
Briefly: two-hybrid.

Another experiment deals with T5, CPK25 (UniProt Q9SJ61).
T5 sequence: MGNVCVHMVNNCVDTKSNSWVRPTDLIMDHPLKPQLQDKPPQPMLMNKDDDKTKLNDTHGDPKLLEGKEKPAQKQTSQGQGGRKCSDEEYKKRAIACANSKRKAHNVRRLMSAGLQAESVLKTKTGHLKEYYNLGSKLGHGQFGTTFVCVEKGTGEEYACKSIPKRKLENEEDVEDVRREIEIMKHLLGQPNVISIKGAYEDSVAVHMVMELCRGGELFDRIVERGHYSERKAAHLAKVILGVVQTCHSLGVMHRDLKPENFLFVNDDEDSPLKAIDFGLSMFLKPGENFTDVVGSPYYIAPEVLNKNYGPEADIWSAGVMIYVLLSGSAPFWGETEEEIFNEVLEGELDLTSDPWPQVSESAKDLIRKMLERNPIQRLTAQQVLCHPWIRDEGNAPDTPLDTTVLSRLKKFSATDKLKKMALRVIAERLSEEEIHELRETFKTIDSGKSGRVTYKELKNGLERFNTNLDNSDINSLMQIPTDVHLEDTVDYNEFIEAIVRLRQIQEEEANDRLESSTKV
The experiment in a line: two-hybrid.

Experiment [3] deals with T6, pGBD-CPK6 (Arabidopsis thaliana) (UniProt Q38872).
T6 sequence: T1 sequence
The experiment in a line: two-hybrid.

Results are given in words; binding and its absence hold for the method and conditions named. For part of these data: In cells and extracts the contact can be indirect. Some binding calls cover weakened binding; strength is not graded here. For part of these data: Sequences can lack the tags named with a protein.

B1: NRT1.1 prey of the DUAL membrane split-ubiquitin system (protein, UniProt Q05085 1-590)
chain: MSLPETKSDDILLDAWDFQGRPADRSKTGGWASAAMILCIEAVERLTTLGIGVNLVTYLTGTMHLGNATAANTVTNFLGTSFMLCLLGGFIADTFLGRYLTIAIFAAIQATGVSILTLSTIIPGLRPPRCNPTTSSHCEQASGIQLTVLYLALYLTALGTGGVKASVSGFGSDQFDETEPKERSKMTYFFNRFFFCINVGSLLAVTVLVYVQDDVGRKWGYGICAFAIVLALSVFLAGTNRYRFKKLIGSPMTQVAAVIVAAWRNRKLELPADPSYLYDVDDIIAAEGSMKGKQKLPHTEQFRSLDKAAIRDQEAGVTSNVFNKWTLSTLTDVEEVKQIVRMLPIWATCILFWTVHAQLTTLSVAQSETLDRSIGSFEIPPASMAVFYVGGLLLTTAVYDRVAIRLCKKLFNYPHGLRPLQRIGLGLFFGSMAMAVAALVELKRLRTAHAHGPTVKTLPLGFYLLIPQYLIVGIGEALIYTGQLDFFLRECPKGMKGMSTGLLLSTLALGFFFSSVLVTIVEKFTGKAHPWIADDLNKGRLYNFYWLVAVLVALNFLIFLVFSKWYVYKEKRLAEVGIELDDEPSIPMGH
With B1, in experiment [1], the binding entry was “binds”.

B2: nYFP-NRT1.1 (protein, UniProt Q05085 1-590)
chain: B1 chain
Consider B2, for which the binding result in experiment [2] is “binds”.

B3: pGAD-NRT1.1 (protein, UniProt Q05085 1-590)
chain: B1 chain
B3: the binding result with CPK26 is on record as “no binding”; in the experiment with CPK5, “no binding”; in the experiment with CPK25 it was “no binding”; in experiment [3], “binds”.
